Source: patent publication US5604098
For at least one entry, the source does not settle the construct or the ends of the probe.

Tests used:
[1] = system: CGase I (Taq I and Hpa II in combination); assay: enzyme reaction in vitro; settings: CGase buffer, purified native protein, only the motif is given
[2] = target: Hpa II restriction endonuclease (UniProt P36433); assay: enzyme reaction in vitro; settings: Hpa II* conditions, purified native protein, only the motif is given

Sequence | activity on this sequence [1] | activity on this sequence [2] | activity on this sequence ([2]; 10 mM MgCl2, 15% DMSO, pH 8.5, 50 C) | activity on this sequence ([1]; Taq I 400 u and Hpa II 50 u per ug)
ACGA (double strand) [ACGA site] | active |  |  | 
ACGG (double strand) [ACGG (CCGT) site] | active | active |  | 
CCGA (double strand) [CCGA (TCGG) site] | active | active |  | 
CCGC (double strand) [CCGC (GCGG) site] | active | active |  | 
CCGG (double strand) [CCGG site] | active |  | active | 
GCGC (double strand) [GCGC site] |  |  |  | active
GCGT (double strand) [GCGT site] | active |  |  | 
TCGA (double strand) [TCGA site] | active |  |  | 
